# Primary screen of a compound library

Source: ChEMBL document CHEMBL3988442, “University of Dundee, Small-Polar-MMV Screening Library” (2021).

Values are the deposited “Percent Effect”, in %. The controls that fix the scale are not given in the record; negative values are as filed. This is an unselected part of the compounds tested.

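Whole-cell assay for inhibitors of Mycobacterium tuberculosis growth, labelled Cornell in the record; the read-out is not stated. The concentration is filed as 10 mM, unlikely as a test dose, so the dose is not known. The record gives no direction; compounds strong in two other growth screens of this library score well above the rest, so higher reads as stronger inhibition. About 53,000 compounds were tested under these conditions; 1.7% (about 900) showed 50% or more at least once.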

Compound,effect
CC(C)(C)C(=O)NCCC(=O)NC(C)(C)c1ccc2c(c1)OCCO2,-3.575%
Cc1nc(C(=O)N2CCCCC2)nn1-c1ccccc1Cl,-10.63%
COc1cccc(CN2CCC3(CCN(C(=O)C4CC=CC4)CC3)C2)c1.O=C(O)C(F)(F)F,19.99%
CCC1COCCN1C(=O)NCc1cccc(-c2cnn(C)c2)c1 (stereo unspecified),11.42%
Cc1nnc(N2CCCC3(CN(Cc4nccn4C)CCO3)C2)o1 (stereo unspecified),-3.973%
CC(=O)c1cccc(CN2CCCC23CCN(c2ccccn2)CC3)c1,6.391%
COC(=O)c1ccc(CN2CCC(c3n[nH]c(C)n3)CC2)s1,7.037%
CCOc1ccccc1-c1noc(CN2CCOC(CN(C)C)C2)n1 (stereo unspecified),-73.67%
Cc1cn2c(n1)C(CNCc1ccc(C)s1)CCC2 (stereo unspecified),3.352%
[H][C@]12CC[C@]([H])(CN(Cc3ccccc3C)C1)N(CC1CCC1)C2=O,33.79%
CC(C)NC(=O)C[C@@H]1CCNC[C@@H]1Cc1cc(-c2ccccc2)on1,21.66%
O=C(O)C(F)(F)F.O=C(O)C(F)(F)F.[H][C@@]12CN(CCOC)CCO[C@]1([H])CN(Cc1ccc(C)o1)C2,23.05%
CN1CCN(CC2CC2)C(=O)c2cnc(N3CCOCC3)nc21,15.29%
CCc1cnc(C)nc1NCCN1CCCCCC1,0.3373%
Cn1cc(NC(=O)CCc2ccsc2)ccc1=O,9.268%
O=C(O)c1ccccc1-c1ccc(CN2CC(c3ccncn3)C2)o1,60.18%
CC(C)(C)OCC1CN(Cc2cccs2)S(=O)(=O)c2cnccc2O1 (stereo unspecified),-24.84%
CN(C)C(=O)Cn1cnc2c(Br)cccc2c1=O,0.1063%
CC(C)c1nnc(NC(=O)NCc2cccnc2NCCN(C)C)s1,-11.66%
CC1CCN(S(=O)(=O)N2C[C@H](c3ccccc3)[C@@H](N)C2)CC1,16.17%
C[C@@H](O)CNc1c(NCc2ccco2)c(=O)c1=O,-51.99%
O=S(=O)(NC1=NCN(CCc2ccccc2)CN1)c1ccc(F)cc1,6.542%
O=C(NC1CCCN(c2ncccn2)C1)c1ccoc1 (stereo unspecified),-10.25%
CC(C)CCC(=O)N(C)CC(=O)Nc1ccc(Br)cn1,-12.94%
O=C(C1CN(c2ncc(F)cn2)CC12CCOCC2)N1CCOCC1 (stereo unspecified),-39.92%
O=C1C(CS(=O)(=O)Nc2ccccc2)=NC(=O)n2cccc21,41.14%
Cc1cccc(CN2Cc3ccnn3CC(COCC3CC3)C2)n1.O=C(O)C(F)(F)F (stereo unspecified),10.51%
CN(CC(F)(F)F)C(=O)C1CSCN1C(=O)OC(C)(C)C (stereo unspecified),0.9417%
COCCCN1CC2(CCCCN2C(=O)COC)CC1=O (stereo unspecified),14.65%
Cn1c(SCc2noc(-c3ccsc3)n2)nnc1C1CCS(=O)(=O)C1 (stereo unspecified),-7.88%
CCCC1CCCN(C(=O)Nc2ccc(F)c(C(N)=O)c2)CC1 (stereo unspecified),25.04%
CCCC(=O)N1CCC(c2cc[nH]n2)C1 (stereo unspecified),-12.15%
CC(Cc1ccccc1Cl)NC(=O)Nc1cnn(CC(N)=O)c1 (stereo unspecified),-9.297%
[H][C@]12CCC[C@@H](CN3CCCC3)[C@@]1([H])CN(c1cc(OC)ncn1)C2,24.77%
CN(C)c1ccc(CCNC(=O)NCc2ccc(N(C)C)nc2)cc1,2.961%
CN(C(=O)C1(C#N)CCCCC1)c1nccs1,17.67%
CNS(=O)(=O)c1ccccc1N1CCN(C(C)C(N)=O)CC1 (stereo unspecified),5.846%
CCC(C)(C)NC(=O)c1ccc(NC(=O)NCc2cc(C)on2)cc1,-26.65%
CCc1noc(CNc2ccc(CC(=O)N3CCSCC3)cc2)n1,-29.23%
CC(C)[C@@H]1CN(Cc2ccccc2C#N)C[C@H]1NC(=O)N(C)C,-6.619%
O=C(NCCc1nccs1)C1CCCN(Cc2ccco2)C1 (stereo unspecified),13.82%
COCCNC(=O)C(C)n1cc(Br)cn1 (stereo unspecified),7.248%
[H][C@@]12CN(c3ncc(Cl)cc3F)C[C@]1(C(=O)O)CN(CC1CC1)C2=O,13.88%
COC1CCN(CCNC(=O)NC(C)c2cccc(Cl)c2)CC1 (stereo unspecified),0.7388%
CN(C)C(=O)C1CN(Cc2ccc(C#N)cc2)c2ccccc2O1 (stereo unspecified),104.5%
COc1ccccc1S(=O)(=O)N1CCC(Oc2cccnn2)CC1,-1.563%
Cn1ccnc1CN1CCC2(CC(=O)N(c3ccc4c(c3)OCO4)C2)C1.O=C(O)C(F)(F)F (stereo unspecified),13.49%
Cc1nc(C)n(C2CCCN(C(=O)c3csnn3)C2)n1 (stereo unspecified),7.837%
O=C(O)C(F)(F)F.O=C(O)C(F)(F)F.O=C(c1cscn1)N1CCC2(CN(Cc3ccncc3)C2)C1,20.37%
COc1cccc(CN2CCCC(Cn3nc(C)nc3C)C2)c1 (stereo unspecified),16.57%
CC(=O)N1CCN(C(=O)C2CCN(c3cccnn3)C2)CC1 (stereo unspecified),-18.01%
CCN(CC)S(=O)(=O)N1CCCN(CC2CCCO2)CC1 (stereo unspecified),-16.05%
Cc1cc(C)c2cc(CNC3CCCCC3)c3nn(C)c(=O)n3c2c1,-19.92%
CC(C)c1nc(C(=O)NCCn2ccnc2)nn1-c1cccc(F)c1,25.34%
Cc1cccc(C2(CNC(=O)C(C)S(C)(=O)=O)CCCC2)c1 (stereo unspecified),-12.86%
Cc1ccc(N2CCCC(N(C)Cc3ccccn3)C2)nn1 (stereo unspecified),14.18%
COCCN1CCCc2sc(C(=O)NCC3CCCO3)nc21 (stereo unspecified),-39.49%
[H][C@]12CC[C@@]3(N=C(C)N(CCOC)C3=O)[C@@]1([H])CN(C(=O)NCC(C)C)C2,-6.253%
CN(Cc1nc(N)c2ccccc2n1)C1CCCN(c2cccnn2)C1 (stereo unspecified),-58.71%
Cn1ccnc1C(=O)N1CCOC(Cc2ccc(Cl)cc2)C1 (stereo unspecified),-14.72%
O=C(C(CNCc1ccncc1)c1ccccc1)N1CCOCC1 (stereo unspecified),-36.17%
[H][C@@]12CS(=O)(=O)C[C@]1([H])N(Cc1cnc(C)nc1)CCN2C(=O)N(C)C,4.988%
Cc1ccsc1C(=O)N1CC[C@@H](N(C)C)[C@@H]1Cc1cnn(C)c1.O=C(O)C(F)(F)F,20.5%
CC(C)c1ccc(CS(=O)(=O)CC(=O)NCc2ccccc2F)cc1,27.5%
c1coc(-c2nnc(CN3CCCC(CN4CCCCCC4)C3)o2)c1 (stereo unspecified),-38.83%
CCN(Cc1cccc(C)c1)Cn1nc(C)c2c(C)onc2c1=O,-12.96%
CCc1c(C)nc(C)nc1N1C[C@@H](CN(CC)CCO)[C@@H](CO)C1,-14.88%
CCCc1nc(N(C)Cc2cnc(NC)nc2)c2cnn(C)c2n1,-18.4%
Cc1ncsc1C(=O)NCCNC(=O)OC(C)(C)C,-10.66%
O=C(c1ccc[nH]1)N1CCCC(c2cc(C(F)(F)F)[nH]n2)C1 (stereo unspecified),33.87%
O=C(O)C(F)(F)F.[H][C@@]12CN(C(=O)c3ccoc3)C[C@@]1([H])N(Cc1cccnc1)C(=O)CO2,-22.16%
COc1cccc(CC2CCCN2CCCO)c1 (stereo unspecified),5.83%
[H][C@]12CN(C(=O)N(C)C)CCN1C[C@H](c1ccccc1)[C@H]2C(=O)OCC,8.969%
Cc1ccccc1C(=O)NCC(O)c1ccc(F)c(F)c1 (stereo unspecified),-1.976%
C/C=C(/C)C(=O)NS(=O)(=O)c1ccc(C(F)(F)F)cn1,9.414%
Cl.Oc1cc(C2CCNCC2)nc(-c2ccsc2)n1,10.58%
COCC(=O)N1CC2(CCN(c3ccccc3)C2)C1,-48.72%
COc1ccccc1N1CCC(NCc2c(C)noc2C)C1 (stereo unspecified),9.699%
Cc1nc(N2CCCC2)nc2c1CCN(C(=O)C1CCC1)CC2,-22.88%
[H][C@@]12CC[C@H](Oc3ccccc3Cl)[C@]1([H])CN(C(=O)CNC(C)=O)C2,-26.25%
O=C(NCCN1CCOCC1)c1cc(COc2ccccc2F)[nH]n1,16.33%
CCS(=O)(=O)N1CCc2c(cnc(-c3cccnc3)c2C(=O)O)C1,3.462%
COCCN1CCCC12CCCN(c1ncccn1)C2 (stereo unspecified),26.37%
COc1ccc(C(C)N2CCC(CNC(C)=O)CC2)cc1Cl (stereo unspecified),-76.46%
CC(C)(C)NS(=O)(=O)c1ccccc1CNCc1ccccc1,-1.793%
[H][C@@]12COC[C@]1(COC)CN(S(=O)(=O)c1cccnc1)C2,-9.628%
Fc1ccc(C(NCc2nnc(-c3ccco3)o2)C2CCC2)cc1 (stereo unspecified),56.57%
O=C(c1ccncc1)N1CCc2ncnc(C3CCOC3)c2CC1 (stereo unspecified),21.87%
CNS(=O)(=O)Cc1ccc(CNc2cncc(-n3cccn3)n2)cc1,13.44%
[H][C@@]12C[C@H](c3nc(C)no3)CN(S(C)(=O)=O)[C@]1([H])CCO2,-1.551%
[H][C@@]12CN(C(=O)C3CCOC3)C[C@]1([H])C(=O)N(Cc1cccc(C)c1)C2 (stereo partly specified),4.733%
CN(C)C(=O)C1CCCN1CCCNC(=O)c1cccc2[nH]ncc12 (stereo unspecified),-43.2%
CCNC(=O)CCC(=O)NC1(c2cccc(Br)c2)CC1,16.42%
CCN(C)c1ncnc2c1CCN(Cc1ccc(OC)cc1)CC2.O=C(O)C(F)(F)F.O=C(O)C(F)(F)F,3.8%
O=C(O)C(F)(F)F.O=C(O)C(F)(F)F.[H][C@@]12OCCN(Cc3ccc(C)o3)[C@@]1([H])CC[C@H]2OCc1cccnc1,-63.11%

Repeated from the top, 8 entries:

With CC(C)(C)C(=O)NCCC(=O)NC(C)(C)c1ccc2c(c1)OCCO2 the screen gave -3.575%.
With Cc1nc(C(=O)N2CCCCC2)nn1-c1ccccc1Cl the screen gave -10.63%.
With COc1cccc(CN2CCC3(CCN(C(=O)C4CC=CC4)CC3)C2)c1.O=C(O)C(F)(F)F the screen gave 19.99%.
With CCC1COCCN1C(=O)NCc1cccc(-c2cnn(C)c2)c1 (stereo unspecified) the screen gave 11.42%.
With Cc1nnc(N2CCCC3(CN(Cc4nccn4C)CCO3)C2)o1 (stereo unspecified) the screen gave -3.973%.
With CC(=O)c1cccc(CN2CCCC23CCN(c2ccccn2)CC3)c1 the screen gave 6.391%.
With COC(=O)c1ccc(CN2CCC(c3n[nH]c(C)n3)CC2)s1 the screen gave 7.037%.
With CCOc1ccccc1-c1noc(CN2CCOC(CN(C)C)C2)n1 (stereo unspecified) the screen gave -73.67%.